No constants are given. Whether binding was seen depends on the method and setting. Binding can be weak; no strength is given.
B1: mAb 5.88.3 (antibody, V domains shown)
VH: EVQMVESGGGLVQPGGSLRLSCAASGFTLRSYWMSWVRQAPGKGLEWVANIKEDGSEKYHVDSVKGRFTISRDNAENSLFLQMSSLRAEDTAVYYCARDMEASAGLFDYWGQGTLVTVSS
VL: EIVMTQSPATLSVSPGERAILSCRASQSISSNLAWYQQKPGQAPRLLIYGASTRATGIPARFSGSGSGTEFTLTISSLQSEDFAVYYCQQYNYWWTFGQGTKVEIKR
B2: mAb 3.3.2 (antibody, V domains shown)
VH: EVQLVESGGGLVQPGGSLRLSCAVSGFTFSSYWMSWVRQAPGKGLEWVANIKQDGSEKYYVDSVKGRFTISRDNAKNSLYLQMNSLRAEDTAVYYCARDQGIAVAGPFDYWGQGTLVTVSS
VL: EIVMTQSPATLSVSPGERATLSCRASQTVSSDLAWYQQKPGQAPRLLIYGASIRATGIPARFSGSGSGTEFTLTISSLQSEDFAVYSCQQYYNWWTFGQGTKVEIKR
B3: mAb 5.28.1 (antibody, V domains shown)
VH: EVQLVESGGIVVQPGGSLRLSCAASGFTFDDYTMHWVRQTPGKGLEWVSLISWDGGSTYYADSVKGRFTISRDNSKNSLYLQMNSLRTEDTALYYCAKDIDIAVAGTGFDHWGQGTLVTVSS
VL: EIVMTQSPATLSVSPGERATLSCRASQSVTSNLAWYQQKPGQAPRLLIYGALIRATGIPARFSGSGSGTEFTLTISSLQSEDFAVYYCQQYNNWPFTFGPGTKVDIKR
B4: mAb 5.86.1 (antibody, V domains shown)
VH: QVQLVQSGAEVKKPGASVKVSCKASGYTFTGYHMYWVRQAPGQGLEWLGWINPNSGGTNYAQKFQGRVTMTRDTSISTAYMELSRLRSDDTAVYYCVRDQGIAAAGPFDYWCQGTLVTVSS
VL: DIRMTQSPSSLSASVGDRVTITCRASQRISTYLNWYQQKPGKAPKFLIYAASSLQSGVPSRFSGSGSGTDFTLTISSLQPEDFATYYCQQSYTTPFTFGPGTKVDIKR

Biological target: monkey Ang-2 (Cynomolgus macaque)
Experiment: immunohistochemistry, monkey ovary sections

binding, binds:
B1, B2, B3, B4
